Some of the results follow.

Sequences of proteins named here, by UniProt entry; tags and fusion partners are left off. A change or cut given only in a name is not applied to a line headed by its entry.
UniProt P50570: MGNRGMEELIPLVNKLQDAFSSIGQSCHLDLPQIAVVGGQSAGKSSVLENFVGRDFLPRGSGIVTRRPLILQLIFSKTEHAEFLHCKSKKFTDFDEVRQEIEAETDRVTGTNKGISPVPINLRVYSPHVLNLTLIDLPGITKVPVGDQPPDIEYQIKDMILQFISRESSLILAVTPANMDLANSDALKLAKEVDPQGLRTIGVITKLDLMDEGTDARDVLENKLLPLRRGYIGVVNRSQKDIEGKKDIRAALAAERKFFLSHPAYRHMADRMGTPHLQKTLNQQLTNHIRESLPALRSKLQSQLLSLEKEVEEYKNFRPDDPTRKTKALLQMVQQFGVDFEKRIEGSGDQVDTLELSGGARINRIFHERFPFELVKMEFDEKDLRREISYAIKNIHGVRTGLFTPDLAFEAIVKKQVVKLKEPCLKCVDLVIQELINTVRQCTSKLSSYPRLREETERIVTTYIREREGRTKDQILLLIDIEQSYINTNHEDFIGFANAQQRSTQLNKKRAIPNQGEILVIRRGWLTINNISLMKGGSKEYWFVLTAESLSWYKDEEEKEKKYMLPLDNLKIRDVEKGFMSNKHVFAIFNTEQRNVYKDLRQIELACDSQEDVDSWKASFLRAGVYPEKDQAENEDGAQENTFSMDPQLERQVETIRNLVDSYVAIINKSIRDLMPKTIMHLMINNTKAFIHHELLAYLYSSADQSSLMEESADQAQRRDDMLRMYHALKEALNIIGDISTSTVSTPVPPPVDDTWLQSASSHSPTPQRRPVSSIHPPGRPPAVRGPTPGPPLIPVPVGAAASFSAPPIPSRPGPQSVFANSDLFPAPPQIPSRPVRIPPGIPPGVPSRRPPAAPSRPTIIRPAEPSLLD
UniProt Q9UBS3: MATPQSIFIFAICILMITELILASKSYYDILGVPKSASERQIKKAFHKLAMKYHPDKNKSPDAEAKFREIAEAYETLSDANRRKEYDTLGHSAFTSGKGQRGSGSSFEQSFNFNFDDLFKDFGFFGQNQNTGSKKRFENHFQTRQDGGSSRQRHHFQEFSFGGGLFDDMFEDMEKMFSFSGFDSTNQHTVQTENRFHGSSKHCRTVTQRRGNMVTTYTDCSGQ
UniProt Q05193: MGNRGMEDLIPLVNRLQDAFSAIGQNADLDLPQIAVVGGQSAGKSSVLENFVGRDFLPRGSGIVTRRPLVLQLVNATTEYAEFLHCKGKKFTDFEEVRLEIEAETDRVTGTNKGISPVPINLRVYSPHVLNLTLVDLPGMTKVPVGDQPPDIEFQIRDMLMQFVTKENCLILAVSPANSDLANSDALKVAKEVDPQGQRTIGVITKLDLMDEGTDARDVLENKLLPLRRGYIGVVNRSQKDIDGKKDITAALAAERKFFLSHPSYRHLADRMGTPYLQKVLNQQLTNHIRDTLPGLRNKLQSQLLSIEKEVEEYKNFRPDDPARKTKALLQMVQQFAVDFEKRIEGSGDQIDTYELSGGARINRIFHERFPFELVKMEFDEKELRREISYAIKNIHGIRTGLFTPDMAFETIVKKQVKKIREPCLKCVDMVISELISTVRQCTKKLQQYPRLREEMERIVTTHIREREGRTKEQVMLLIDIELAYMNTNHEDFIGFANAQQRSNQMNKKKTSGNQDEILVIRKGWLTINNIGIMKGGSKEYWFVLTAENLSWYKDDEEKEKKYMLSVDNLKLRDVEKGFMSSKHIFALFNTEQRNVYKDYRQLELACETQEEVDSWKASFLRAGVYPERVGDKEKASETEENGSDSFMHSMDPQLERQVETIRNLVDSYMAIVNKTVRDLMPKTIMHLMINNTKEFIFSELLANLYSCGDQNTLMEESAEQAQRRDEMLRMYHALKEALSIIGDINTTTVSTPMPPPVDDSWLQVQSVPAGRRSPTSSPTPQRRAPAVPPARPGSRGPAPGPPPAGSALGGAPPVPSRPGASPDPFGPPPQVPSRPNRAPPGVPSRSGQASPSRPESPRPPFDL
UniProt Q96HY7: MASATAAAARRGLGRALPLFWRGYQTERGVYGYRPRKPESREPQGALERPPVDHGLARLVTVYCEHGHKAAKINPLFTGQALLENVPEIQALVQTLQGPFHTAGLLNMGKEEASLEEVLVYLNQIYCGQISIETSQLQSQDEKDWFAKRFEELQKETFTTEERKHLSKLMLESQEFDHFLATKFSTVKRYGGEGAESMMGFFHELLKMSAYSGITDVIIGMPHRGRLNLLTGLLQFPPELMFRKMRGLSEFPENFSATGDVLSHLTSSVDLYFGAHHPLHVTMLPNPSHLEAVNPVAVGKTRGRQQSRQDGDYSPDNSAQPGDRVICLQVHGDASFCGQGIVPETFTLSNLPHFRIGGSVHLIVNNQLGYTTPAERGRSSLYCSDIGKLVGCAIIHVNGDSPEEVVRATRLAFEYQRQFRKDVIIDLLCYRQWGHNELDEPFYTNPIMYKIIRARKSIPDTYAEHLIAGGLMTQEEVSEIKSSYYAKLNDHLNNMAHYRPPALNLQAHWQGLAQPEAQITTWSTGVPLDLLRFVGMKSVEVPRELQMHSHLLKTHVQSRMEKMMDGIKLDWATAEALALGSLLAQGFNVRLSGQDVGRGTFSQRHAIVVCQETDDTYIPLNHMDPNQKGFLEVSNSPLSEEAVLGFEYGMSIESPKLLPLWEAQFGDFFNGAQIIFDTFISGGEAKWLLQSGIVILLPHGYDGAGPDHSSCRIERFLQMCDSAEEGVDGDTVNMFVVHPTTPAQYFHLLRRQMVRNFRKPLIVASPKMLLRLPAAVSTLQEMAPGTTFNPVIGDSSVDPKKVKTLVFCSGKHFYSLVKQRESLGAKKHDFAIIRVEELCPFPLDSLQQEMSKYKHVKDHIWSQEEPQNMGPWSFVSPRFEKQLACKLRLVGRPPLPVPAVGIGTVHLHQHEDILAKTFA
UniProt Q9NYP3: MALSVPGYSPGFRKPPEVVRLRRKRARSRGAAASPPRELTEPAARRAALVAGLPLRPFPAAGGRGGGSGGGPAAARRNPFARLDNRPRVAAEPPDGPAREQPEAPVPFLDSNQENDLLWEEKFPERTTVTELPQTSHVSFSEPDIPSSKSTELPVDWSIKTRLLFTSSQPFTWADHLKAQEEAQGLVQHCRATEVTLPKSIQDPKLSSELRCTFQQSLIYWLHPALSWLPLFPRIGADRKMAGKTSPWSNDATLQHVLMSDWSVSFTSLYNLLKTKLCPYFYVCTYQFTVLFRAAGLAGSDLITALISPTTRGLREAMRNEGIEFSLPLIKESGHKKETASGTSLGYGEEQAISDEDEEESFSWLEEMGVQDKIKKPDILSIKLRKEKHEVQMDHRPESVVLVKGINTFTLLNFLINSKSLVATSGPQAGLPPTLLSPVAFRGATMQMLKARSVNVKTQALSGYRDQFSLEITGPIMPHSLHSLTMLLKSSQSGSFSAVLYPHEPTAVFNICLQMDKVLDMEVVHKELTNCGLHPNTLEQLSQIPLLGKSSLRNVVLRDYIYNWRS
UniProt O60496: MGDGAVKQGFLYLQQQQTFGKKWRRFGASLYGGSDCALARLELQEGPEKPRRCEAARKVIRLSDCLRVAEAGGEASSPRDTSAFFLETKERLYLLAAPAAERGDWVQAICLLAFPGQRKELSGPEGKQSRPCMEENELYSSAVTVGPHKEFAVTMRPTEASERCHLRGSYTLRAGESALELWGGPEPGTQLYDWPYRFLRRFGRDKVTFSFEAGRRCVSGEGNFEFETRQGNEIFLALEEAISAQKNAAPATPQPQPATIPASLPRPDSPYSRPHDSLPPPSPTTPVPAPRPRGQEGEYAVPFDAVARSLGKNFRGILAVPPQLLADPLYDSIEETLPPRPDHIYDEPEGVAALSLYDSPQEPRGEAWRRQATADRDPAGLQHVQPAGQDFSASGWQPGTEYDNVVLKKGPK
UniProt Q9H3H5: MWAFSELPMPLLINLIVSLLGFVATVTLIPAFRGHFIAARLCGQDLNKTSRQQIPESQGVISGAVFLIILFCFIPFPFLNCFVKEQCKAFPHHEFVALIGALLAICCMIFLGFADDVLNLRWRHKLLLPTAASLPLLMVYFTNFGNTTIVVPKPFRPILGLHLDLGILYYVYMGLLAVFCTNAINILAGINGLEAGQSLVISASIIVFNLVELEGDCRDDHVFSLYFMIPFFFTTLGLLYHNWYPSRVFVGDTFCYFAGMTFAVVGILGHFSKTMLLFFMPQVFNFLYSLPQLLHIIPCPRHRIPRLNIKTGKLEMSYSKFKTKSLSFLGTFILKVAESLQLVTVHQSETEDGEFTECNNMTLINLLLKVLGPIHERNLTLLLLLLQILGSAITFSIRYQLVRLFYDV
UniProt Q6UX07: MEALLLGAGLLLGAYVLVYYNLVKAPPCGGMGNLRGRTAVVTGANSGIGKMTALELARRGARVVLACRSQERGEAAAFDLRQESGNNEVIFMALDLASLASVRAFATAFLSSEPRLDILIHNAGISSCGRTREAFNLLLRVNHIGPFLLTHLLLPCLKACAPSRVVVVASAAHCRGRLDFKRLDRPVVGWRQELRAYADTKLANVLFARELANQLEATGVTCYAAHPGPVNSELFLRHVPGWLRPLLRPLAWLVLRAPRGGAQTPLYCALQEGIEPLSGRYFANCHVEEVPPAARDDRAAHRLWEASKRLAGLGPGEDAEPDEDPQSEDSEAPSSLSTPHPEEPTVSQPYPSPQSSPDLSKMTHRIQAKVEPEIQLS
UniProt Q5SXM8: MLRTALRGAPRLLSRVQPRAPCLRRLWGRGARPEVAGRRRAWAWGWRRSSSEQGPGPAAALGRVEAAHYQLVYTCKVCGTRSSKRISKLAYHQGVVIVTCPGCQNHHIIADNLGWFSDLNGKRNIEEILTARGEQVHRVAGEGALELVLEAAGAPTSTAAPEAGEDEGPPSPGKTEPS
UniProt Q96QB1: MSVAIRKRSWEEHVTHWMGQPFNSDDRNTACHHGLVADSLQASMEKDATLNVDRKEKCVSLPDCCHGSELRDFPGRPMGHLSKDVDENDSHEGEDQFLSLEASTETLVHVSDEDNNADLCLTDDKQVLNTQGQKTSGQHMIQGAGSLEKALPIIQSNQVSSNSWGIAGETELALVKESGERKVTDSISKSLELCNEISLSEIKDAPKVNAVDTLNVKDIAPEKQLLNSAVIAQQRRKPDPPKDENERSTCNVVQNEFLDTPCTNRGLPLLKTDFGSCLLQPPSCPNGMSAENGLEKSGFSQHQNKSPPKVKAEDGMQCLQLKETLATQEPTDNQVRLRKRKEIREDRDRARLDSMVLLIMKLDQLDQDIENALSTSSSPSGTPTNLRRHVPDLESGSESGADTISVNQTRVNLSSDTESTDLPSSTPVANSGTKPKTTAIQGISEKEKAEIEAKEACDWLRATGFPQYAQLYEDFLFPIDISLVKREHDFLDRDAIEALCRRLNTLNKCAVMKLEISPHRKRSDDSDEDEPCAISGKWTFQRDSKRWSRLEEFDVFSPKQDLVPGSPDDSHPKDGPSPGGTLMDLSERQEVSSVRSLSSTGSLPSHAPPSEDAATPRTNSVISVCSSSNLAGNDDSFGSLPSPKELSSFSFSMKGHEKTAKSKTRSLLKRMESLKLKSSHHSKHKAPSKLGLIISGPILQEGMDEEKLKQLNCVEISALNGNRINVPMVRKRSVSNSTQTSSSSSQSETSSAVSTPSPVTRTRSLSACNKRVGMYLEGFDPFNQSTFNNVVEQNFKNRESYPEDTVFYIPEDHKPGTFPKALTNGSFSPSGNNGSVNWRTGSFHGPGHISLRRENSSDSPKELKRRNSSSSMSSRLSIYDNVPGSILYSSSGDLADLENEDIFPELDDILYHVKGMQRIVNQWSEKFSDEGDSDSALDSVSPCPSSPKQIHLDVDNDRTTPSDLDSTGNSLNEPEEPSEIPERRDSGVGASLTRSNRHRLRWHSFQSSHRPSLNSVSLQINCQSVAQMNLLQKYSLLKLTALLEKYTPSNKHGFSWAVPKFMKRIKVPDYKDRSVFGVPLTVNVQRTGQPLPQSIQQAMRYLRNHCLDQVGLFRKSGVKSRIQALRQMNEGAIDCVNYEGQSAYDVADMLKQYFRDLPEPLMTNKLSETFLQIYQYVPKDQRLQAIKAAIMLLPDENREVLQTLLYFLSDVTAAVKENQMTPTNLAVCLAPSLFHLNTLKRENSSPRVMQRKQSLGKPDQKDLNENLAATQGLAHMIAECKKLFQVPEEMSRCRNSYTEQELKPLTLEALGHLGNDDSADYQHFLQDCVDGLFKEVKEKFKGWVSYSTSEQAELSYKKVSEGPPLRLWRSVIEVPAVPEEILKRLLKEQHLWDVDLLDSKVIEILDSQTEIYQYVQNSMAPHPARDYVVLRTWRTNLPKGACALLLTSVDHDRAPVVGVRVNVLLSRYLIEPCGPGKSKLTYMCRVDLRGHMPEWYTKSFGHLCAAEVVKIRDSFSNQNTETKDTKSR
UniProt Q9BY27: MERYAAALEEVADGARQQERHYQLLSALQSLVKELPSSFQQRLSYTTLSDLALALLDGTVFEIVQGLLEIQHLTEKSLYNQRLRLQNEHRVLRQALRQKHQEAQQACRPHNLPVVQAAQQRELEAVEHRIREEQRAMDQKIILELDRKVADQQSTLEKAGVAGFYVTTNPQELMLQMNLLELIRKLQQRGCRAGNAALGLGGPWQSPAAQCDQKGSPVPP

Compound in one test: CCCS(=O)(=O)Nc1ccc(F)c(C(=O)c2c[nH]c3ncc(Cl)cc23)c1F
Description: log2 fold change, soluble protein after heating vs DMSO (PISA); higher = thermal stabilisation; K562 lysate, 10 uM; active = over 0.2 and 3.5 SD of the protein, either way, in both replicates (recomputed). The gist of the method: (§1)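 Pellets of K562 cells were dounce-homogenised in PBS pH 7.4 with 1 mM MgCl2, and the crude extract was held at 1 mg/mL protein for a 30 min treatment with 10 μM compound. Aliquots were heated for 3 min over 48°C-58°C and pooled before NP-40 was added to 0.5% at 4°C. The supernatant from 21,000xg for 90 min was quantified by TMTpro 16plex LC-MS/MS with channel sums equalised. Values are reported from duplicates as log-two fold change in thermal stability relative to solvent controls.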
As to DNM2 isoform 4 (UniProt P50570), the log2 fold change was inactive: -0.001.
Regarding DNAJB9 (UniProt Q9UBS3), the log2 fold change is inactive: 0.02.
Take DNM1 (UniProt Q05193): the log2 fold change is inactive: 0.09.
Take DHTKD1 (UniProt Q96HY7): the log2 fold change is inactive: 0.059.
Regarding DONSON (UniProt Q9NYP3), the log2 fold change was inactive: 0.017.
Still for that read-out and setting: with DNAJB1 (UniProt M0R128) the figure was inactive: 0.01; with DOCK5 (UniProt Q9H7D0), inactive: -0.004; with DOK2 (UniProt O60496), inactive: -0.154.
In the case of DNMT3A (UniProt Q9Y6K1), the log2 fold change was inactive: 0.069.
With DHX33 (UniProt Q9H6R0), the log2 fold change is inactive: 0.14.
The same measure, in the same setting: with DPAGT1 (UniProt Q9H3H5) the figure was inactive: 0.041.
Same read-out and setting: the result for DNPEP (UniProt B9ZVU2) reads inactive: 0.07; that for DNASE1L1 (UniProt P49184), inactive: 0.174.
Still for that read-out and setting: the result for DHRS13 (UniProt Q6UX07) reads inactive: 0.291; that for DNLZ (UniProt Q5SXM8), inactive: -0.095.

Compound in another test: CCN(CCCOc1ccc2c(Nc3cc(CC(=O)Nc4cccc(F)c4)[nH]n3)ncnc2c1)CCOP(=O)(O)O [barasertib]
The description is as above. The gist of the method: as §1
For the target DLGAP5 isoform 3 (UniProt Q15398), the log2 fold change was inactive: 0.281.
Take DNM1 (UniProt Q05193): the log2 fold change was inactive: 0.028.
Consider DHTKD1 (UniProt Q96HY7), for which the log2 fold change is inactive: -0.076.
Same read-out and setting: the result for DONSON (UniProt Q9NYP3) reads inactive: -0.03; that for DOCK11, A0A0J9YW64, inactive: 0.084; that for DNAJB1 (UniProt M0R128), inactive: 0.057.
Still for that read-out and setting: with DNAJC16 (UniProt Q9Y2G8) the figure was inactive: 0.171.
For DLG1 isoform 3 (UniProt Q12959), the log2 fold change was inactive: 0.108.
On the same count and under the same terms, with DMD isoform 14 (UniProt P11532) the figure was inactive: -0.29; with DOP1A (UniProt Q5JWR5), inactive: 0.04.
Still for that read-out and setting: with DNMT1 (UniProt P26358) the figure was inactive: -0.116.
On to DPAGT1 (UniProt Q9H3H5), for which the log2 fold change was inactive: 0.015.
Still for that read-out and setting: the result for DLC1 (UniProt Q96QB1) reads inactive: -0.017; that for DHRS13 (UniProt Q6UX07), inactive: 0.236.

Compound in the next test: CC[C@@H]1C(=O)N(C)c2cnc(Nc3ccc(C(=O)NC4CCN(C)CC4)cc3OC)nc2N1C1CCCC1
Described as above. The gist of the method:
as §1
Take DNM2 isoform 4 (UniProt P50570): the log2 fold change is inactive: -0.018.
Still for that read-out and setting: the result for DOP1A (UniProt Q5JWR5) reads inactive: 0.054.
On the same count and under the same terms, with DIPK1A (UniProt Q5T7M9) the figure was inactive: -0.03.
Same read-out and setting: the result for DNAJC14 (UniProt Q6Y2X3) reads inactive: -0.125.
Turning to DNPEP (UniProt B9ZVU2), the log2 fold change is inactive: 0.098.
As to DLC1 (UniProt Q96QB1), the log2 fold change is inactive: 0.097.

Compound in a further test: CC[C@@H]1C(=O)N(C)c2cnc(Nc3ccc(C(=O)N[C@H]4CC[C@H](N5CCN(CC6CC6)CC5)CC4)cc3OC)nc2N1C(C)C [volasertib]
Described as above. The gist of the method: as §1
As for DNM2 isoform 4 (UniProt P50570), the log2 fold change was inactive: -0.031.
Still for that read-out and setting: the result for DNAJB9 (UniProt Q9UBS3) reads inactive: -0.183; that for DNM1 (UniProt Q05193), inactive: -0.075; that for DHTKD1 (UniProt Q96HY7), inactive: 0.073.
For DONSON (UniProt Q9NYP3), the log2 fold change is inactive: 0.026.
Still for that read-out and setting: with DNAJB1 (UniProt M0R128) the figure was inactive: 0.074.
Same read-out and setting: with DOCK5 (UniProt Q9H7D0) the figure was inactive: -0.176; with DOK2 (UniProt O60496), inactive: -0.092; with DNMT3A (UniProt Q9Y6K1), inactive: 0.32.
Take DHX33 (UniProt Q9H6R0): the log2 fold change is inactive: 0.046.
As to DPAGT1 (UniProt Q9H3H5), the log2 fold change was inactive: 0.006.
As for DNPEP (UniProt B9ZVU2), the log2 fold change was inactive: -0.031.
As for DNASE1L1 (UniProt P49184), the log2 fold change is inactive: 0.056.
Consider DHRS13 (UniProt Q6UX07), for which the log2 fold change is inactive: -0.274.
Still for that read-out and setting: the result for DNLZ (UniProt Q5SXM8) reads inactive: 0.068.

Compound in the next test: CCn1c(C(=O)N(C2CC2)C2CC2)cc2c3c(ncn3C)c(Nc3cc(C)n(C)n3)nc21
Described as above. The gist of the method: as §1
For DNM2 isoform 4 (UniProt P50570), the log2 fold change was inactive: -0.014.
Consider DNAJB9 (UniProt Q9UBS3), for which the log2 fold change was inactive: 0.175.
As for DNM1 (UniProt Q05193), the log2 fold change is inactive: -0.01.
Still for that read-out and setting: with DHTKD1 (UniProt Q96HY7) the figure was inactive: 0.049.
Regarding DONSON (UniProt Q9NYP3), the log2 fold change is inactive: -0.036.
Turning to DGCR6L (UniProt Q9BY27), the log2 fold change was inactive: 0.114.
In the case of DNAJB1 (UniProt M0R128), the log2 fold change was inactive: -0.162.
The same measure, in the same setting: with DOK2 (UniProt O60496) the figure was inactive: 0.133; with DNAJC16 (UniProt Q9Y2G8), inactive: -0.184; with DLG1 isoform 3 (UniProt Q12959), inactive: -0.202.
DMD isoform 14 (UniProt P11532): the log2 fold change was inactive: -0.397.
The same measure, in the same setting: with DNMT1 (UniProt P26358) the figure was inactive: -0.026; with DNAJC14 (UniProt Q6Y2X3), inactive: -0.049; with DPAGT1 (UniProt Q9H3H5), inactive: 0.161.
As for DNPEP (UniProt B9ZVU2), the log2 fold change was inactive: 0.023.
On the same count and under the same terms, with DLC1 (UniProt Q96QB1) the figure was inactive: 0.081; with DNASE1L1 (UniProt P49184), inactive: -0.255; with DHRSX (UniProt Q8N5I4), inactive: -0.046.
Consider DLX2 (UniProt Q07687), for which the log2 fold change was inactive: -0.246.
The same measure, in the same setting: the result for DHRS13 (UniProt Q6UX07) reads inactive: 0.077; that for DNAJB14 (UniProt H7C494), inactive: 0.001.
On the same count and under the same terms, the result for DNLZ (UniProt Q5SXM8) reads inactive: 0.036.

Source of the values: the supplement of paper PMC10849652.
